Data taken from the supplement of paper PMC4962491.
Where a name gives a salt, the structure may show the parent alone. ± gives the standard deviation of the averaged measurements. Only a part is listed here, and it is no random draw. This data set is noisy: repeats of one test often differ as much as different tests do. Numbered stars: 1 amine (or outer) side, 2 acyl side, 3 side chain; on linkers, the order of the positions; unused ones are H or OH. Bridge positions count the residues as written; N and C are the ends. Square brackets hold non-standard residues; d marks the D form. Peptide text beside a SMILES is read from it. * marks the point of attachment. ξ: configuration not given here. X2 = N=C1NCCC([C@H](N[*:1])C(=O)[*:2])N1; ΔAla(Z-3-ureido) = NC(=O)N/C=C(\N)C(=O)O; ξβ3hOrn = NCCCC(N)CC(=O)*; Dap = NC[C@H](N)C(=O)O

Tested on: FaDu
Experiment: mitochondrial oxygen consumption rate normalised to cell number, Z score over the library; higher = higher oxygen consumption (negative = OCR reduction)
Conditions: treatment time 24 h, assay medium: 5 mM galactose, 5 mM pyruvate, 4 mM glutamine
Experimental: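 Primary screen: FaDu cells were incubated 24 h with Pharmakon 1600 / TDI oncology set compounds at 2 or 10 uM. Mitochondrial-specific OCR (basal minus 2 uM antimycin A) was measured on a Seahorse XF96 in assay medium with 5 mM galactose, 5 mM pyruvate and 4 mM glutamine, then corrected for Hoechst cell number and expressed as a Z score […]. Compounds that cut cell number by >66% were excluded. Two repeats.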

Structure (SMILES) | mitochondrial oxygen consumption rate normalised (2 µM) | mitochondrial oxygen consumption rate normalised (10 µM)
NCCCC(=O)O [gamma-AMINOBUTYRIC ACID] | -0.0567 ± 0.5 | –
CCCCCCOC(=O)NC(=N)c1ccc(NCc2nc3cc(C(=O)N(CCC(=O)OCC)c4ccccn4)ccc3n2C)cc1 | 0.523 ± 0.02 | –
CC(O)C(=O)[O-].[Na+] (stereo not given) | 1.28 ± 0.5 | –
CN[C@@H]1[C@@H](O[C@H]2O[C@H](CO)[C@@H](N)[C@H](O)[C@H]2O)OC2C[C@@H](N)[C@@H](O[C@H]3[C@H](O)[C@@H](O)[C@H](N)C[C@@H]3N)OC2[C@@H]1O (stereo not given in full) | -0.0917 ± 0.79 | –
C[C@@H]1NC(=O)[C@@H](N)CNC(=O)[C@H](C2CCNC(=N)N2)NC(=O)/C(=C/NC(N)=O)NC(=O)[C@H](CNC(=O)CC(N)CCCN)NC1=O.N=C1NCC[C@H]([C@@H]2NC(=O)/C(=C/NC(N)=O)NC(=O)[C@H](CNC(=O)C[C@@H](N)CCCN)NC(=O)[C@H](CO)NC(=O)[C@@H](N)CNC2=O)N1 (H-[Dap]S[Dap](ξβ3hOrn)[ΔAla(Z-3-ureido)][X2]; lactam 1-C) | -0.285 ± 0.7 | –
CC12CCC(CC1=O)C2(C)C (stereo not given) | -0.569 ± 0.12 | 0.477 ± 0.051
C#Cc1cccc(Nc2ncnc3cc(OCCOC)c(OCCOC)cc23)c1 [Erlotinib HCl] | 0.0528 ± 0.32 | –
Cc1onc(-c2ccccc2Cl)c1C(=O)N[C@@H]1C(=O)N2[C@@H]1SC(C)(C)[C@@H]2C(=O)O | 0.345 ± 0.35 | –
CN[C@@H]1[C@H](O)[C@H](NC)[C@H]2O[C@@]3(O)C(=O)C[C@@H](C)O[C@H]3O[C@@H]2[C@H]1O | -0.534 ± 0.45 | –
NS(=O)(=O)c1cc2c(cc1Cl)NC(C(Cl)Cl)NS2(=O)=O (stereo not given) | 0.533 ± 0.3 | –
OCc1cccnc1 | 0.453 ± 0.17 | –
CN1CCC[C@@H]1Cc1c[nH]c2ccc(CCS(=O)(=O)c3ccccc3)cc12 | 0.126 ± 0.85 | –
CC(C)[N+](C)(CCOC(=O)C1c2ccccc2Oc2ccccc21)C(C)C | 0.497 ± 0.85 | –
CN(C)CCC=C1c2ccccc2COc2ccccc21 | -0.927 ± 0.5 | –
CCC[C@@H]1C[C@@H](C(=O)N[C@@H]([C@H]2O[C@H](SC)[C@H](O)[C@@H](O)[C@H]2O)[C@H](C)Cl)N(C)C1 | -0.0755 ± 1.8 | –
O=C(O)CCNC(=O)c1ccccc1 | -0.305 ± 0.54 | –
O=C(N[C@H](CO)[C@H](O)c1ccc([N+](=O)[O-])cc1)C(Cl)Cl | -3.2 ± 0.058 | –
C[n+]1c2cc(N)ccc2cc2ccc(N)cc21 | -1.61 ± 0.45 | –
CC1=NN(c2ccccc2)C(=O)C1 | 0.119 ± 0.27 | –

Structure (SMILES) | mitochondrial oxygen consumption rate normalised (2 µM) | mitochondrial oxygen consumption rate normalised (10 µM)
Cn1cnc2c1c(=O)[nH]c(=O)n2C | -0.181 ± 0.61 | –
CCOc1ccc2ccccc2c1C(=O)N[C@@H]1C(=O)N2[C@@H]1SC(C)(C)[C@@H]2C(=O)O | 0.744 ± 2.1 | –
CC(C)(CO)C(O)C(=O)NCCCO (stereo not given) | -0.503 ± 0.67 | –
CCN(CC)CCNC(=O)c1cc(Cl)c(N)cc1OC | 0.496 ± 0.79 | –
C[n+]1cc2c3c(ccc2c2ccc4cc5c(cc4c21)OCO5)OCO3 | -1.31 ± 0.22 | –
Clc1ccc(CSC(Cn2ccnc2)c2ccc(Cl)cc2Cl)cc1 (stereo not given) | -0.166 ± 0.046 | –
Nc1ncnc2c1ncn2[C@@H]1O[C@H](CO)[C@@H](O)[C@H]1O | 0.273 ± 0.33 | –
CC(=O)O[C@@]12CO[C@@H]1C[C@H](O)[C@@]1(C)C(=O)[C@H](O)C3=C(C)[C@@H](OC(=O)[C@H](O)[C@@H](NC(=O)OC(C)(C)C)c4ccccc4)C[C@@](O)([C@@H](OC(=O)c4ccccc4)[C@H]21)C3(C)C [Docetaxel] | 0.0314 ± 0.21 | –
CC(=O)O[C@@]12CO[C@@H]1C[C@H](O)[C@@]1(C)C(=O)[C@H](O)C3=C(C)[C@@H](OC(=O)[C@H](O)[C@@H](NC(=O)OC(C)(C)C)c4ccccc4)C[C@@](O)([C@@H](OC(=O)c4ccccc4)[C@H]21)C3(C)C | 0.806 ± 0.26 | –
C=CC1=C(C)c2cc3[nH]c(cc4nc(cc5[nH]c(cc1n2)c(C)c5CCC(=O)O)C(CCC(=O)O)=C4C)c(C)c3C=C | -1.24 ± 0.029 | –
CN(C)CCN(Cc1ccccc1)c1ccccn1 | 0.451 ± 0.24 | –
CO[C@H]1C[C@@H]2CC[C@@H](C)[C@@](O)(O2)C(=O)C(=O)N2CCCC[C@H]2C(=O)O[C@H]([C@H](C)C[C@@H]2CC[C@@H](OCCO)[C@H](OC)C2)CC(=O)[C@H](C)/C=C(\C)[C@@H](O)[C@@H](OC)C(=O)[C@H](C)C[C@H](C)/C=C/C=C/C=C/1C | – | -1.07 ± 0.18
CO[C@H]1C[C@@H]2CC[C@@H](C)[C@@](O)(O2)C(=O)C(=O)N2CCCC[C@H]2C(=O)O[C@H]([C@H](C)C[C@@H]2CC[C@@H](OCCO)[C@H](OC)C2)CC(=O)[C@H](C)/C=C(\C)[C@@H](O)[C@@H](OC)C(=O)[C@H](C)C[C@H](C)/C=C/C=C/C=C/1C [Everolimus] | 0.0924 ± 0.2 | –
CC(O)C(=O)O.N (stereo not given) | 0.473 ± 1.2 | 0.0377 ± 0.64
Nc1ccn([C@@H]2O[C@H](CO)[C@@H](O)C2(F)F)c(=O)n1 [Gemcitabine HCl] | 1.44 ± 1.1 | –
CN1C(=O)CC(c2ccccc2)C1=O (stereo not given) | -0.0825 ± 0.35 | –
O=C(O)CC(O)(CC(=O)O)C(=O)O | 0.655 ± 0.15 | –
COc1cc(O)c(C(=O)c2ccccc2)cc1S(=O)(=O)O | -0.539 ± 0.37 | –
CCCCCCCCCC(=O)N[C@@H](Cc1c[nH]c2ccccc12)C(=O)N[C@@H](CC(N)=O)C(=O)N[C@@H](CC(=O)O)C(=O)N[C@@H]1C(=O)NCC(=O)N[C@@H](CCCN)C(=O)N[C@@H](CC(=O)O)C(=O)N[C@H](C)C(=O)N[C@@H](CC(=O)O)C(=O)NCC(=O)N[C@H](CO)C(=O)N[C@@H]([C@H](C)CC(=O)O)C(=O)N[C@@H](CC(=O)c2ccccc2N)C(=O)O[C@@H]1C [DAPTOMYCIN (5 millimolar/DMSO)] | 1.41 ± 0.085 | –

Complete entries from above. Order of values: mitochondrial oxygen consumption rate normalised (2 µM)	mitochondrial oxygen consumption rate normalised (10 µM)
Cn1cnc2c1c(=O)[nH]c(=O)n2C is listed as -0.181 ± 0.61	–
CCC[C@@H]1C[C@@H](C(=O)N[C@@H]([C@H]2O[C@H](SC)[C@H](O)[C@@H](O)[C@H]2O)[C@H](C)Cl)N(C)C1 is listed as -0.0755 ± 1.8	–
